Source: the supplement of paper PMC10849652
Some of the results follow.

The chains behind the UniProt entries cited, without tags or fusion partners. Where a name states a change or a piece, a line headed by the entry shows the natural chain unless it says otherwise.
UniProt Q9NP72: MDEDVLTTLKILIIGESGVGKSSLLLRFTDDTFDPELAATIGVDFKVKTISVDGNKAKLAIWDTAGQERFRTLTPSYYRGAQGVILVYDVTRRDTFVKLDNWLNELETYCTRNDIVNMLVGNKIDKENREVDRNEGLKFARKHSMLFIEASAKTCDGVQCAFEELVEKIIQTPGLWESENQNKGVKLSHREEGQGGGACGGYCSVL
UniProt P62820, whole entry, looked up: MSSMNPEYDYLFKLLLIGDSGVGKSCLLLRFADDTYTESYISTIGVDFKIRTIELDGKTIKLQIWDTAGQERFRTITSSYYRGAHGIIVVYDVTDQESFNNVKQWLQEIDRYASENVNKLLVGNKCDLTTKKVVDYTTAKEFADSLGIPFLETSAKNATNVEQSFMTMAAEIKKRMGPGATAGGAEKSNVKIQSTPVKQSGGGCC
UniProt P98179: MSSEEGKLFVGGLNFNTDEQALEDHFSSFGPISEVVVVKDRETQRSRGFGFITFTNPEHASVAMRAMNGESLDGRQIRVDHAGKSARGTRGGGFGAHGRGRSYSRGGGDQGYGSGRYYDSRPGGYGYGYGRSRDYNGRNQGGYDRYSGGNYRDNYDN
UniProt Q15907: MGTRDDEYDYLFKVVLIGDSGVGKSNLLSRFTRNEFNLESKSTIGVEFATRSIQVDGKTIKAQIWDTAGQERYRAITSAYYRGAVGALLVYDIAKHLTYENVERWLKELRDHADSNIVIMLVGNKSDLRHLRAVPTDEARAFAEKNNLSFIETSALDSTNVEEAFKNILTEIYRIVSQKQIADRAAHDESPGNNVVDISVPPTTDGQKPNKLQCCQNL
UniProt Q9NS91, whole entry, looked up: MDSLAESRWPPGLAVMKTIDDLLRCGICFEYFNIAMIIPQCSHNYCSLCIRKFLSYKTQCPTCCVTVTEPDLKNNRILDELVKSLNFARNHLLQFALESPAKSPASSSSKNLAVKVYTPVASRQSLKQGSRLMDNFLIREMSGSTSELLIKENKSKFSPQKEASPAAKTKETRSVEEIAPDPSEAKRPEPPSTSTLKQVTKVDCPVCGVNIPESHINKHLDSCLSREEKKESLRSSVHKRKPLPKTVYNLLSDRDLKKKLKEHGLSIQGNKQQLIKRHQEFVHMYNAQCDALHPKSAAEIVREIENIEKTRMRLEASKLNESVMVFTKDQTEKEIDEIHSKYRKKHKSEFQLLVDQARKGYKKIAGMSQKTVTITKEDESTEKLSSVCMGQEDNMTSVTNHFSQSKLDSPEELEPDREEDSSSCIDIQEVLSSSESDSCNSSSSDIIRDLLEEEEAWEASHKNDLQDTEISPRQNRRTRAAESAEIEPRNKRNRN
UniProt Q9BTL3: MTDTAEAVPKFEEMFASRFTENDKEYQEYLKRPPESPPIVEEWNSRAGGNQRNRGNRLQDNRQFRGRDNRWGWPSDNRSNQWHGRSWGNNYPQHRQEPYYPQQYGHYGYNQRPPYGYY
UniProt O60216: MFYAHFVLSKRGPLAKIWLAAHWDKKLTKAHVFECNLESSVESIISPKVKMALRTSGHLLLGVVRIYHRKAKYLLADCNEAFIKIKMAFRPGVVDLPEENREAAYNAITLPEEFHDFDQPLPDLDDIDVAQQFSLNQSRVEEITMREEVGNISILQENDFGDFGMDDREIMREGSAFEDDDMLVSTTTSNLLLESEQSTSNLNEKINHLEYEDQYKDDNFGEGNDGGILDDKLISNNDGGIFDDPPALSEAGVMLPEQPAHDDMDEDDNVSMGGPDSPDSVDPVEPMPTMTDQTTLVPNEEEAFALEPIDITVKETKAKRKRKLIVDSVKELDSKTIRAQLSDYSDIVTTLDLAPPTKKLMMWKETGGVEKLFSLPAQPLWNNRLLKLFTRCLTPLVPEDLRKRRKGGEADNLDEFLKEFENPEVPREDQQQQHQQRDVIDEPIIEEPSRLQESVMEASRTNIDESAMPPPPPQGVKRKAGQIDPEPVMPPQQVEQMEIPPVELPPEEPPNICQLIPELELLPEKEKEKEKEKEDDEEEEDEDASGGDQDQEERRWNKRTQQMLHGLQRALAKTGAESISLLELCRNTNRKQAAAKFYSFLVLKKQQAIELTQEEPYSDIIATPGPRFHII
UniProt Q96QF0: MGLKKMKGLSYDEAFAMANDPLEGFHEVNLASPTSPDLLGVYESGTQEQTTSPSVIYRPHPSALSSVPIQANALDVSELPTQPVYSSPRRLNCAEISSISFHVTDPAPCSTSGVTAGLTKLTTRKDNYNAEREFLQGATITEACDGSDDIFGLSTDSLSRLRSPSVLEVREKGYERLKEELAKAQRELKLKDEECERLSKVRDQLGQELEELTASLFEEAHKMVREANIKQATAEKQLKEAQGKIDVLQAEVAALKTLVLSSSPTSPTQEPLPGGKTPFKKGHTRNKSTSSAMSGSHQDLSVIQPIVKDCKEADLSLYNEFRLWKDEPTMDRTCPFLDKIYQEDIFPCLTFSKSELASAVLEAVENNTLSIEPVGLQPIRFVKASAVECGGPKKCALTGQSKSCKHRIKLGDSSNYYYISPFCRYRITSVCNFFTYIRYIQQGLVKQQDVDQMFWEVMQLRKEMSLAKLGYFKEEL
UniProt P61224: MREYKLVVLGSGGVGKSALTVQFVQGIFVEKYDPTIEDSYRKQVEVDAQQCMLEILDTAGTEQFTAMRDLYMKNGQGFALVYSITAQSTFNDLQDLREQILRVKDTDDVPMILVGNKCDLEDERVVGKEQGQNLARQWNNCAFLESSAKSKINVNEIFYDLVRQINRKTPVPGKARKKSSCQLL
UniProt Q86YS6: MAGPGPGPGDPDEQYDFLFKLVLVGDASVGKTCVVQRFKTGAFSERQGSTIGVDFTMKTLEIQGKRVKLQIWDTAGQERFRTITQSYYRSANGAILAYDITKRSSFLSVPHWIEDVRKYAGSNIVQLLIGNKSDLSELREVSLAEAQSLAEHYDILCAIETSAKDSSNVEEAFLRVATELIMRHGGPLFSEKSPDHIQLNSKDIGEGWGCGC
UniProt Q5T8P6: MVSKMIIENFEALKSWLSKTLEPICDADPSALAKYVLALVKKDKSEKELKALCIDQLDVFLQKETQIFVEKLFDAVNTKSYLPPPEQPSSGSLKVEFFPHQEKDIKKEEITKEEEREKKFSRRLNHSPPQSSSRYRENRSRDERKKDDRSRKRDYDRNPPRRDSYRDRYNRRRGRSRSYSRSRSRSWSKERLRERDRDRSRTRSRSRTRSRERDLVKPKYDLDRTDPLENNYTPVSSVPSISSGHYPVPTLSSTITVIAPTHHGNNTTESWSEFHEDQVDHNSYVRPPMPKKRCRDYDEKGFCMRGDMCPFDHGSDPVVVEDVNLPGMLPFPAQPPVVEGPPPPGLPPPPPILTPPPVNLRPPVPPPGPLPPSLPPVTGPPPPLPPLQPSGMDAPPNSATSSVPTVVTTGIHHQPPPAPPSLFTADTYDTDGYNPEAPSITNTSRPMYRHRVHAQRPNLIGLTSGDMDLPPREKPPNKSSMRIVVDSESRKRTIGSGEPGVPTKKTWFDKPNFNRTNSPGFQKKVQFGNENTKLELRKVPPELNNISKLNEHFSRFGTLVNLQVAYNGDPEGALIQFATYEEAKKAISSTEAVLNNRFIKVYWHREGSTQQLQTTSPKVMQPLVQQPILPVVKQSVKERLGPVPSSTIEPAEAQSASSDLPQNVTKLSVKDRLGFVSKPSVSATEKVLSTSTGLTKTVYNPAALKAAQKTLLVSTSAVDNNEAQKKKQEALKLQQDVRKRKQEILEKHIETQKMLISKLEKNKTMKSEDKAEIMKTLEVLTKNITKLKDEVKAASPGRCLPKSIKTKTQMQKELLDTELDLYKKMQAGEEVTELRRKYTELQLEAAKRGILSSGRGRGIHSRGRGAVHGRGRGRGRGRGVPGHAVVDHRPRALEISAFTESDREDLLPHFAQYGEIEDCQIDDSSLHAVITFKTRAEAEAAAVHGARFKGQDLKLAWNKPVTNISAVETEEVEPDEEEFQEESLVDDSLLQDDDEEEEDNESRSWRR
UniProt P98175: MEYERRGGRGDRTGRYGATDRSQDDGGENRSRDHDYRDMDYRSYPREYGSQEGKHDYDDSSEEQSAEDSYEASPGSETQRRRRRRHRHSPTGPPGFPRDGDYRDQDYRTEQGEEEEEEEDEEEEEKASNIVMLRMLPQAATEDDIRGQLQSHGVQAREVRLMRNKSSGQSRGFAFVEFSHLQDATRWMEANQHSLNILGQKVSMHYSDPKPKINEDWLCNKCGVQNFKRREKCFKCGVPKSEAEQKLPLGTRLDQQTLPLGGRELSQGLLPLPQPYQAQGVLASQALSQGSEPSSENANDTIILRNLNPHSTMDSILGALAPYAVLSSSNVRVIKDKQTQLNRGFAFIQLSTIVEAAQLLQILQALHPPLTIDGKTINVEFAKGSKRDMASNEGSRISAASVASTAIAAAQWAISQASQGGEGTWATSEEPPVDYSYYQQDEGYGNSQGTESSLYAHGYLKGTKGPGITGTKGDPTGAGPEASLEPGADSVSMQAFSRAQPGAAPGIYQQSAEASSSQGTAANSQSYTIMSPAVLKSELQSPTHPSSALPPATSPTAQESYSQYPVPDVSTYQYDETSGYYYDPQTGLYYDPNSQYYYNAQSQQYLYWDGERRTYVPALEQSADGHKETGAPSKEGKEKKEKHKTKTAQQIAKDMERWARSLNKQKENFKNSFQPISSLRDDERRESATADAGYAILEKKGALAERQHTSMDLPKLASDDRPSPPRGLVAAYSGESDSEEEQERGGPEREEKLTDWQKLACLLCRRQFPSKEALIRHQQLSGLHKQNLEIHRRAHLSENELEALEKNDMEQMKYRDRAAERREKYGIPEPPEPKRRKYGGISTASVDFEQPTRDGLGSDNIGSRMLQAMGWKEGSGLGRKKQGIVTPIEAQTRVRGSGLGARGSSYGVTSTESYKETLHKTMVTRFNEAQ
UniProt Q9H2T7: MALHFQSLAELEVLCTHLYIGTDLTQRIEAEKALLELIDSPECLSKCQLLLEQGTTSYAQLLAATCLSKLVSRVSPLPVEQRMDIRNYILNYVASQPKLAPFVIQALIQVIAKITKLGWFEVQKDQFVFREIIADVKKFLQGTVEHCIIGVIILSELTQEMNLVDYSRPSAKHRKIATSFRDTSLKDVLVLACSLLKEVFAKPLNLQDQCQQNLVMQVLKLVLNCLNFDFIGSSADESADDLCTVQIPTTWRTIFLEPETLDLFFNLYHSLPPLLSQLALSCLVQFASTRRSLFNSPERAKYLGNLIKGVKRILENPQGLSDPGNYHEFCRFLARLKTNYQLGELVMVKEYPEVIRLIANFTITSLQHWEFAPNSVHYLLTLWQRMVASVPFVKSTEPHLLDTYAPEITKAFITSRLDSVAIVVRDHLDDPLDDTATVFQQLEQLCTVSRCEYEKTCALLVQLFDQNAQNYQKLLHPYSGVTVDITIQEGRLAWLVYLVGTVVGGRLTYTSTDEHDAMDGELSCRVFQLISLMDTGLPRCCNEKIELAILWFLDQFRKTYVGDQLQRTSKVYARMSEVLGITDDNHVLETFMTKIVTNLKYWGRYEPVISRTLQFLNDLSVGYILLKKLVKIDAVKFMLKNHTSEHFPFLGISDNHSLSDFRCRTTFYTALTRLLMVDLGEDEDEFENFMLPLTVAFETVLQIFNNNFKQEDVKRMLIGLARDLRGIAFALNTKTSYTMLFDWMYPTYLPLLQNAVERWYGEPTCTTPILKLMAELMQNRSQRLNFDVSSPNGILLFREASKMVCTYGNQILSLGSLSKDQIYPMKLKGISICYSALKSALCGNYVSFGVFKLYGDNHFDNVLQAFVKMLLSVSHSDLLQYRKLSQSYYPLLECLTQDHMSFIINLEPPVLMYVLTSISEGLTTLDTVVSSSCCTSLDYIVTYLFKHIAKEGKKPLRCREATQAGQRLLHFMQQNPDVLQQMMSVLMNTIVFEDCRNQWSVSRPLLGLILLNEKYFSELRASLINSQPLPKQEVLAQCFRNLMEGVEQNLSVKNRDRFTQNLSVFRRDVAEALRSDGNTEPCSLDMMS
UniProt P10114: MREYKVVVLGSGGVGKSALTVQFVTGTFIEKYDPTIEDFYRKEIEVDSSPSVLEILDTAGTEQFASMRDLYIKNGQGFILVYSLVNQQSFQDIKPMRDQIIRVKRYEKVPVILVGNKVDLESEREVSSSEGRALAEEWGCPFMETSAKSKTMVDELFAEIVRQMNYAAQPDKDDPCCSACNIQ
UniProt P51153: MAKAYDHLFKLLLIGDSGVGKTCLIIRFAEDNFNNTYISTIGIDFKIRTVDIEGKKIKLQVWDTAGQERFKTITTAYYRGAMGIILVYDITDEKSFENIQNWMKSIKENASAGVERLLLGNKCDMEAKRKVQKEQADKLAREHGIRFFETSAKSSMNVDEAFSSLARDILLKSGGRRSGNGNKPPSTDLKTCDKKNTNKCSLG

What was measured:
Assay in all cases: log2 fold change, soluble protein after heating vs DMSO (PISA); higher = thermal stabilisation; K562 cells, 10 uM, 30 min; active = over 0.2 and 3.5 SD of the protein, either way, in both replicates (recomputed)
[1] = compound: CS(=O)(=O)c1ccc(-c2cnc(N)c(C(=O)Nc3ccccc3)n2)cc1
Procedure, shortened: (§1)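 K562 cells at 2×10^6 cells/mL were treated with 10 μM compound for 30 min. Aliquots were heated for 3 min across 48°C-58°C, pooled, and extracted in PBS with 0.5% NP-40 at 4°C; soluble protein was the supernatant after 21,000xg for 90 min. Soluble protein was quantified by TMTpro 16plex LC-MS/MS with channel sums equalised, and reported as log2 fold change in thermal stability against DMSO controls, with values from duplicates.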

crizotinib = compound: C[C@@H](Oc1cc(-c2cnn(C3CCNCC3)c2)cnc1N)c1c(Cl)ccc(F)c1Cl [crizotinib]
Procedure, shortened: as §1

[2] = compound: C[C@@H]1COCCN1C2=NC(=NC(=C2)C3(CC3)S(=O)(=O)C)C4=C5C=CNC5=CC=C4
Procedure, shortened: as §1

[3] = compound: C[C@H](C1=CC=C(C=C1)C(=O)NC2=C3C=CNC3=NC=C2)N
Procedure, shortened: as §1

duvelisib = compound: C[C@H](Nc1ncnc2nc[nH]c12)c1cc2cccc(Cl)c2c(=O)n1-c1ccccc1 [duvelisib]
Procedure, shortened: as §1

gandotinib = compound: Cc1cc(Nc2cc(CN3CCOCC3)c3nc(C)c(Cc4ccc(Cl)cc4F)n3n2)n[nH]1 [gandotinib]
Procedure, shortened: as §1

tozasertib = compound: Cc1cc(Nc2cc(N3CCN(C)CC3)nc(Sc3ccc(NC(=O)C4CC4)cc3)n2)n[nH]1 [tozasertib]
Procedure, shortened: as §1

[4] = compound: Cc1cc(SCc2sc(-c3ccc(C(F)(F)F)cc3)nc2C)ccc1OCC(=O)O
Procedure, shortened: as §1

doramapimod = compound: Cc1ccc(-n2nc(C(C)(C)C)cc2NC(=O)Nc2ccc(OCCN3CCOCC3)c3ccccc23)cc1 [doramapimod]
Procedure, shortened: as §1

ispinesib = compound: Cc1ccc(C(=O)N(CCCN)[C@@H](c2nc3cc(Cl)ccc3c(=O)n2Cc2ccccc2)C(C)C)cc1 [ispinesib]
Procedure, shortened: as §1

bafetinib = compound: Cc1ccc(NC(=O)c2ccc(CN3CC[C@H](N(C)C)C3)c(C(F)(F)F)c2)cc1Nc1nccc(-c2cncnc2)n1 [bafetinib]
Procedure, shortened: as §1

[5] = compound: Cc1cccc(CC(=O)N2CCc3c2ccc(-c2cn(C)c4ncnc(N)c24)c3F)n1
Procedure, shortened: as §1

nilotinib = compound: Cc1cn(-c2cc(NC(=O)c3ccc(C)c(Nc4nccc(-c5cccnc5)n4)c3)cc(C(F)(F)F)c2)cn1 [nilotinib]
Procedure, shortened: as §1

[6] = compound: Cc1nc(Nc2n[nH]c3c2CN(C(=O)N[C@H](CN(C)C)c2ccccc2)C3(C)C)c2sccc2n1
Procedure, shortened: as §1

dasatinib = compound: Cc1nc(Nc2ncc(C(=O)Nc3c(C)cccc3Cl)s2)cc(N2CCN(CCO)CC2)n1 [dasatinib]
Procedure, shortened: as §1

[7] = compound: Cc1ncc(-c2ccnc(Nc3ccc(S(C)(=O)=O)cc3)n2)n1C(C)C
Procedure, shortened: as §1

[8] = compound: Cn1cc(-c2ccc3c(c2)CCN3C(=O)Cc2cccc(C(F)(F)F)c2)c2c(N)ncnc21
Procedure, shortened: as §1

[9] = compound: Cn1cc(-c2ccc3nnc(C(F)(F)c4ccc5ncccc5c4)n3n2)cn1
Procedure, shortened: as §1

tipifarnib = compound: Cn1cncc1[C@@](N)(c1ccc(Cl)cc1)c1ccc2c(c1)c(-c1cccc(Cl)c1)cc(=O)n2C [tipifarnib]
Procedure, shortened: as §1

mubritinib = compound: FC(F)(F)c1ccc(/C=C/c2nc(COc3ccc(CCCCn4ccnn4)cc3)co2)cc1 [mubritinib]
Procedure, shortened: as §1

Measured: log2 fold change

RAB18 (UniProt Q9NP72)
inactive: [1] -0.027 | crizotinib 0.029 | [2] -0.059 | [3] -0.024 | duvelisib -0.01 | gandotinib -0.079 | tozasertib -0.041 | [4] -0.018 | doramapimod -0.028 | ispinesib 0.048 | bafetinib -0.046 | [5] -0.03 | nilotinib 0.016 | [6] -0.011 | dasatinib 0.036 | [7] -0.006 | [8] 0.013 | [9] 0.041 | tipifarnib 0.013 | mubritinib 0.012

RAB1A (UniProt P62820)
inactive: [1] -0.03 | crizotinib 0.031 | [2] 0.032 | [3] -0.054 | duvelisib 0.018 | gandotinib -0.018 | tozasertib -0.012 | [4] -0.045 | doramapimod -0.04 | ispinesib 0.013 | bafetinib -0.024 | [5] -0.068 | nilotinib 0.041 | [6] -0.008 | dasatinib 0.039 | [7] 0.003 | [8] -0.005 | [9] -0.001 | tipifarnib 0.025 | mubritinib 0.013

RBM3 (UniProt P98179)
inactive: [1] -0.122 | crizotinib 0.012 | [2] -0.55 | [3] 0.105 | duvelisib -0.12 | gandotinib 0.177 | tozasertib -0.003 | [4] 0.023 | doramapimod -0.002 | ispinesib -0.208 | bafetinib 0.178 | [5] -0.026 | nilotinib 0.008 | [6] 0.123 | dasatinib 0.118 | [7] 0.128 | [8] -0.23 | [9] -0.178 | tipifarnib 0.12 | mubritinib -0.113

Looked up one by one from the list above (two):
RAB18 (UniProt Q9NP72)
inactive: [1] -0.027 | crizotinib 0.029 | [2] -0.059 | [3] -0.024 | duvelisib -0.01 | gandotinib -0.079 | tozasertib -0.041 | [4] -0.018 | doramapimod -0.028 | ispinesib 0.048 | bafetinib -0.046 | [5] -0.03 | nilotinib 0.016 | [6] -0.011 | dasatinib 0.036 | [7] -0.006 | [8] 0.013 | [9] 0.041 | tipifarnib 0.013 | mubritinib 0.012

RBM3 (UniProt P98179)
inactive: [1] -0.122 | crizotinib 0.012 | [2] -0.55 | [3] 0.105 | duvelisib -0.12 | gandotinib 0.177 | tozasertib -0.003 | [4] 0.023 | doramapimod -0.002 | ispinesib -0.208 | bafetinib 0.178 | [5] -0.026 | nilotinib 0.008 | [6] 0.123 | dasatinib 0.118 | [7] 0.128 | [8] -0.23 | [9] -0.178 | tipifarnib 0.12 | mubritinib -0.113

Next entries follow:

RAB11B (UniProt Q15907)
inactive: [1] 0.038 | crizotinib 0.062 | [2] -0.013 | [3] -0.023 | duvelisib 0.025 | gandotinib -0.005 | tozasertib -0.037 | [4] -0.073 | doramapimod -0.009 | ispinesib -0.018 | bafetinib -0.09 | [5] -0.054 | nilotinib 0.012 | [6] -0.009 | dasatinib 0.09 | [7] -0.036 | [8] -0.028 | [9] 0.033 | tipifarnib 0.102 | mubritinib 0.033

RAD18 (UniProt Q9NS91)
inactive: [1] 0.021 | crizotinib -0.055 | [2] 0.157 | [3] -0.034 | duvelisib 0.03 | gandotinib -0.169 | tozasertib 0.189 | [4] 0.003 | doramapimod 0.032 | ispinesib 0.122 | bafetinib 0.018 | [5] 0.027 | nilotinib -0.058 | [6] -0.053 | dasatinib -0.094 | [7] -0.182 | [8] -0.004 | [9] 0.119 | tipifarnib -0.035 | mubritinib -0.046

RBBP4 (UniProt Q09028)
inactive: [1] 0.017 | crizotinib 0.056 | [2] 0.045 | [3] -0.061 | duvelisib 0.11 | gandotinib 0.004 | tozasertib 0.013 | [4] 0.046 | doramapimod -0.061 | ispinesib 0.109 | bafetinib 0.043 | [5] -0.083 | nilotinib 0.019 | [6] 0.012 | dasatinib 0 | [7] 0.002 | [8] -0.079 | [9] 0.004 | tipifarnib 0.044 | mubritinib -0.003

RAMAC (UniProt Q9BTL3)
inactive: [1] -0.099 | crizotinib -0.005 | [2] -0.095 | [3] 0.083 | duvelisib -0.031 | gandotinib 0.061 | tozasertib 0.049 | [4] -0.055 | doramapimod -0.004 | ispinesib -0.015 | bafetinib 0.035 | [5] 0.079 | nilotinib -0.043 | [6] 0.05 | dasatinib 0.078 | [7] 0.006 | [8] -0.043 | [9] 0 | tipifarnib 0.104 | mubritinib -0.004

RAD21 (UniProt O60216)
inactive: [1] 0.019 | crizotinib 0.018 | [2] 0.045 | [3] -0.059 | duvelisib 0.028 | gandotinib -0.039 | tozasertib 0.039 | [4] 0.004 | doramapimod 0.003 | ispinesib 0.04 | bafetinib -0.026 | [5] -0.034 | nilotinib 0.033 | [6] -0.066 | dasatinib -0.069 | [7] -0.033 | [8] 0.048 | [9] -0.038 | tipifarnib 0.01 | mubritinib 0.05

RAB3IP (UniProt Q96QF0)
inactive: [1] 0.016 | crizotinib 0.211 | [2] 0.139 | [3] -0.233 | duvelisib 0.09 | gandotinib -0.095 | tozasertib 0.047 | [4] -0.008 | doramapimod -0.245 | ispinesib 0.007 | bafetinib 0.06 | [5] 0.045 | nilotinib 0.062 | [6] -0.107 | dasatinib -0.012 | [7] 0.008 | [8] 0.046 | [9] -0.047 | tipifarnib 0 | mubritinib -0.013

RAP1B (UniProt P61224)
inactive: [1] 0.006 | crizotinib -0.02 | [2] 0 | [3] -0.105 | duvelisib -0.005 | gandotinib -0.011 | tozasertib -0.024 | [4] -0.042 | doramapimod -0.005 | ispinesib 0.007 | bafetinib 0.014 | [5] -0.024 | nilotinib 0.062 | [6] 0.008 | dasatinib 0.038 | [7] 0.001 | [8] -0.027 | [9] 0.006 | tipifarnib 0.02 | mubritinib -0.016

RAB43 (UniProt Q86YS6)
inactive: [1] 0.077 | crizotinib 0.011 | [2] 0.025 | [3] -0.004 | duvelisib 0.12 | gandotinib 0.022 | tozasertib 0.035 | [4] 0.002 | doramapimod 0.021 | ispinesib 0.036 | bafetinib -0.02 | [5] -0.192 | nilotinib 0.002 | [6] 0.018 | dasatinib -0.006 | [7] -0.026 | [8] 0 | [9] -0.135 | tipifarnib 0.006 | mubritinib -0.033

RBM26 isoform 3 (UniProt Q5T8P6)
inactive: [1] 0.066

RBM10 isoform 5 (UniProt P98175)
inactive: [1] -0.023 | crizotinib 0.063 | [2] -0.051 | [3] 0.049 | duvelisib -0.066 | gandotinib 0.007 | tozasertib 0.079 | [4] 0.031 | doramapimod -0.009 | ispinesib 0.013 | bafetinib 0.212 | [5] -0.204 | nilotinib -0.019 | [6] 0.012 | dasatinib 0.032 | [7] -0.04 | [8] -0.229 | [9] -0.065 | tipifarnib 0.056 | mubritinib -0.015

RANBP17 (UniProt Q9H2T7)
inactive: [1] 0 | crizotinib -0.151 | [2] -0.232 | [3] -0.271 | duvelisib -0.151 | gandotinib -0.021 | tozasertib 0.014 | [4] 0.068 | doramapimod -0.046 | ispinesib 0.02 | bafetinib -0.059 | [5] 0.14 | nilotinib -0.134 | [6] -0.099 | dasatinib -0.083 | [7] 0.021 | [8] -0.094 | [9] 0.085 | tipifarnib 0.036 | mubritinib -0.069

RAP2A (UniProt P10114)
inactive: [1] 0.054 | crizotinib 0.139 | [2] 0.08 | [3] -0.18 | duvelisib 0.095 | gandotinib 0.076 | tozasertib -0.004 | [4] -0.047 | doramapimod -0.039 | ispinesib 0.043 | bafetinib 0.016 | [5] -0.156 | nilotinib 0.042 | [6] -0.005 | dasatinib 0.078 | [7] -0.006 | [8] 0.021 | [9] -0.004 | tipifarnib 0.032 | mubritinib 0.051

RAB13 (UniProt P51153)
inactive: [1] -0.076 | crizotinib 0.058 | [2] -0.06 | [3] -0.246 | duvelisib -0.054 | gandotinib -0.039 | tozasertib 0.008 | [4] 0.017 | doramapimod -0.027 | ispinesib 0.145 | bafetinib 0.019 | [5] 0.094 | nilotinib 0.022 | [6] 0.011 | dasatinib 0.019 | [7] 0.018 | [8] 0.015 | [9] -0.013 | tipifarnib -0.056 | mubritinib 0.016
